Laboratory results from the supplement of paper PMC10849652.
Some of the results follow.

Sequences of proteins named here, by UniProt entry; tags and fusion partners are left off. A change or cut given only in a name is not applied to a line headed by its entry.
UniProt Q9NXS2: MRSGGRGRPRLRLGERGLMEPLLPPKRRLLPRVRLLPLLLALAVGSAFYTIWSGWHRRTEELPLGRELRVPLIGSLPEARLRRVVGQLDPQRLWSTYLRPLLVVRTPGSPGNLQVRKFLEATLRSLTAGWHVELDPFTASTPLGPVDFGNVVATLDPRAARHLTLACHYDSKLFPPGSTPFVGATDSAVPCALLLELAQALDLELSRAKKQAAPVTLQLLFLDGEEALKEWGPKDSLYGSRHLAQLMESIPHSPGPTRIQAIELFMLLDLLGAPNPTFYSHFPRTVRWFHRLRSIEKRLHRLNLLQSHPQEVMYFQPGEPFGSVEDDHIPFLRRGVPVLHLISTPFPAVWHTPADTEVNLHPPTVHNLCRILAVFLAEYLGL
UniProt P61289: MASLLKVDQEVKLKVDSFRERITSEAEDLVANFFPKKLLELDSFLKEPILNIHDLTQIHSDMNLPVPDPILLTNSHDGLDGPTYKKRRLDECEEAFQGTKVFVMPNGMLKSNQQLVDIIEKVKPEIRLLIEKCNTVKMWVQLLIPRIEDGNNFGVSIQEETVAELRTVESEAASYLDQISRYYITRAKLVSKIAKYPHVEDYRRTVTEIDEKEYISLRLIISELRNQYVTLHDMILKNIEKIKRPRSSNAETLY
UniProt P20618: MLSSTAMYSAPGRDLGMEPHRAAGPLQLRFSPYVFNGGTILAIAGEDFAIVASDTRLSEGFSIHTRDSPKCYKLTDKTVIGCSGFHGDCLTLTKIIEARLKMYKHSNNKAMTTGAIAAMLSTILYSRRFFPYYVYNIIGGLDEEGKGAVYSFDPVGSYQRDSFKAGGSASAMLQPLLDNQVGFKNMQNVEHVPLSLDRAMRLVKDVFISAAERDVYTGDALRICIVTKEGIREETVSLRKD
UniProt Q96C36: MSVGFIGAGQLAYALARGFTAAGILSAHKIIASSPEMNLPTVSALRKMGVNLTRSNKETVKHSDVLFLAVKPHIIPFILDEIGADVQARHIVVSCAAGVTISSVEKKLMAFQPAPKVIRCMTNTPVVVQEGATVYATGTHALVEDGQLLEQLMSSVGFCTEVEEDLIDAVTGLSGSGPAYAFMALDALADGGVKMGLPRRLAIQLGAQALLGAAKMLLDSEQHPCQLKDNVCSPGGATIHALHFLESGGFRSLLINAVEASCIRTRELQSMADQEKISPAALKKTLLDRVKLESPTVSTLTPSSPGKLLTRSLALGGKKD
UniProt P26599: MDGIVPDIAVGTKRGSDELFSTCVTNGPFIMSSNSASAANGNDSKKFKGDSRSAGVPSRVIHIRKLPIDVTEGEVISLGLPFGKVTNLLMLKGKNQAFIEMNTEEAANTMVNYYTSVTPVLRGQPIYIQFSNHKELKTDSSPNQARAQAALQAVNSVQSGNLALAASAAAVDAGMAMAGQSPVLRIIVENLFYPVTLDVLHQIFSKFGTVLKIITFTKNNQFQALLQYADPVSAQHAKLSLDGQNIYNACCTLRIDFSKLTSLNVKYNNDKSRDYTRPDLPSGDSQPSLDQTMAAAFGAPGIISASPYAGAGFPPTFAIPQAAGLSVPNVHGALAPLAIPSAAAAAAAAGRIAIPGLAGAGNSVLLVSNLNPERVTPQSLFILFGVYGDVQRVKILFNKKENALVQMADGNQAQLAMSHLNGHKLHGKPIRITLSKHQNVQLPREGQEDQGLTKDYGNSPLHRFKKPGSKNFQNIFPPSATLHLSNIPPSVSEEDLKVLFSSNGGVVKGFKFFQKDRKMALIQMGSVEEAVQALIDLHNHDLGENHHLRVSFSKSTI
UniProt Q9ULZ3, whole entry, looked up: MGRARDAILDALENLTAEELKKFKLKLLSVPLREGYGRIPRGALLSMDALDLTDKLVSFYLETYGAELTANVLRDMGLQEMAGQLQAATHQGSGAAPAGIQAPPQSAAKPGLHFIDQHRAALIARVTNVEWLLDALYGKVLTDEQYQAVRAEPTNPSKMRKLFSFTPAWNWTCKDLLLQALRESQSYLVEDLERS
UniProt Q16401: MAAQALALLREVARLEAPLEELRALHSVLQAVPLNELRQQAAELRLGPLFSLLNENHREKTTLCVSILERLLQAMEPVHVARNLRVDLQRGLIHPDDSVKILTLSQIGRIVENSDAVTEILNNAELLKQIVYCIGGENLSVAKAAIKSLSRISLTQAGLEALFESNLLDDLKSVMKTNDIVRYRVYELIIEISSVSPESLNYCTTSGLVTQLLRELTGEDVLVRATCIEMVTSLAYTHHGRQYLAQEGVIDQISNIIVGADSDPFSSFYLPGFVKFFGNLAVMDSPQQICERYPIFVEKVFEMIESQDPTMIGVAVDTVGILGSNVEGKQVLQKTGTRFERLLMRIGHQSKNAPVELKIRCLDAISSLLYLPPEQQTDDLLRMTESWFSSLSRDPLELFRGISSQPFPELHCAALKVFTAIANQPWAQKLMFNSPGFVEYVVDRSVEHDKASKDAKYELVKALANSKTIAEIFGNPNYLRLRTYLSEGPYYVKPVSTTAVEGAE
UniProt Q9BRP8: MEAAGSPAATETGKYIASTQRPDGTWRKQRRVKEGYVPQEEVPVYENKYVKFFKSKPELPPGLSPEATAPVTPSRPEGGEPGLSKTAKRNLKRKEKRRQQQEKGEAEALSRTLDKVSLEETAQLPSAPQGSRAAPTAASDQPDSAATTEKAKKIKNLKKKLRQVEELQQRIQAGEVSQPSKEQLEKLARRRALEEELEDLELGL
UniProt P49721: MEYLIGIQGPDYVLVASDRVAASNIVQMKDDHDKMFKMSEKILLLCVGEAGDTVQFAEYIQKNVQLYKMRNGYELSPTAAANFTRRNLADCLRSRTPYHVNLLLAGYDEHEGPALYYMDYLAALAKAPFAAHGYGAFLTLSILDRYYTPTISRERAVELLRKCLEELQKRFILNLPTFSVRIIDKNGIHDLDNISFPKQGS
UniProt P51665: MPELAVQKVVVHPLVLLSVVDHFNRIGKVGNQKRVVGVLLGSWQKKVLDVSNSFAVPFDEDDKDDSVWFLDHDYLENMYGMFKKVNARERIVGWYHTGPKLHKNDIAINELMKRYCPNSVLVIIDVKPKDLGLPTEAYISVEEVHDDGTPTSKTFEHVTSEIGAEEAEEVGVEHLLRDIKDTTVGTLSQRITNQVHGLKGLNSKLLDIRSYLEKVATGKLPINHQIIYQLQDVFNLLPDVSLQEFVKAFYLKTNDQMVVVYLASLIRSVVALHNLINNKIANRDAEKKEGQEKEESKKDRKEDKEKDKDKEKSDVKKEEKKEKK
UniProt P49720: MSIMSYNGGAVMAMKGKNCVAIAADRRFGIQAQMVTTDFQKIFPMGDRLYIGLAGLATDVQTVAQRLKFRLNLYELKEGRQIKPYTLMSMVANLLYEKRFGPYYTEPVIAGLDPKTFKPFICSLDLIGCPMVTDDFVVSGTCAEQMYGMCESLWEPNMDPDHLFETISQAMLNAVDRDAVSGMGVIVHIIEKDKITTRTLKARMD
UniProt P17980, whole entry, looked up: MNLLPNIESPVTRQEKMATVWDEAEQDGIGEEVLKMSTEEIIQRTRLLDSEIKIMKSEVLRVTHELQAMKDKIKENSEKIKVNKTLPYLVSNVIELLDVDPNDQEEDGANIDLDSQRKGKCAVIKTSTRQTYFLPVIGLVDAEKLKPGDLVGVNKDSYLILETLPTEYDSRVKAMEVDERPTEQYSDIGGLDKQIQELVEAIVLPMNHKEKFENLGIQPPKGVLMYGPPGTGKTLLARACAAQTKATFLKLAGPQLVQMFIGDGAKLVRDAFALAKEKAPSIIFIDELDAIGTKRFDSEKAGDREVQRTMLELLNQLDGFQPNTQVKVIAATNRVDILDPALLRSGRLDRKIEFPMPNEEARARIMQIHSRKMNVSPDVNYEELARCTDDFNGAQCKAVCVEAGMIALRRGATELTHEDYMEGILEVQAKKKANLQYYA
UniProt O00231, whole entry, looked up: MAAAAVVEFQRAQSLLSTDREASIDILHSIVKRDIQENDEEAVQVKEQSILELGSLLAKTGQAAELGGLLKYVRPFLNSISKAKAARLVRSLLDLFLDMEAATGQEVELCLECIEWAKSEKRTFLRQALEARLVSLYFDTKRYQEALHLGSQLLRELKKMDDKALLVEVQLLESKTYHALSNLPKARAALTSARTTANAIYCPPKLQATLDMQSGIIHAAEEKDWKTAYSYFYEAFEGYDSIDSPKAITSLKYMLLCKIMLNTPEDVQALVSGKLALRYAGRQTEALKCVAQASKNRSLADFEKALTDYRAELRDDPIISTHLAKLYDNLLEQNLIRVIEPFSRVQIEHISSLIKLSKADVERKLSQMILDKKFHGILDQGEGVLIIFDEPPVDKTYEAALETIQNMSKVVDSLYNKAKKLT
UniProt Q9H0R6: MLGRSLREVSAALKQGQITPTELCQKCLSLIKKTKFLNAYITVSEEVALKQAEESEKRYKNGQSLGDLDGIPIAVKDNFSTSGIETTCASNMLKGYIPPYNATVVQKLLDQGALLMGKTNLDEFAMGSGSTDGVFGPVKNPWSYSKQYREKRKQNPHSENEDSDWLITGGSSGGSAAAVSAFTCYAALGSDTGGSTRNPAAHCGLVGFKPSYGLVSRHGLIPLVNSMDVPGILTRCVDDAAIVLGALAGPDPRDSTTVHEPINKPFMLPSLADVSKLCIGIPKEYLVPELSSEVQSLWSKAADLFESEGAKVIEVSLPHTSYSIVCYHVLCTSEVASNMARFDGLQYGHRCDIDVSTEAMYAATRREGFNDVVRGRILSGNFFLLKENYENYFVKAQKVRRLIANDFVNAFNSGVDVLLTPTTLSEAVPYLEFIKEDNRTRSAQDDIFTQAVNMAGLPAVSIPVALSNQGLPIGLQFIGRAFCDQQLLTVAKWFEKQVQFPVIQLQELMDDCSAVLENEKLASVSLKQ
UniProt P20742, whole entry, looked up: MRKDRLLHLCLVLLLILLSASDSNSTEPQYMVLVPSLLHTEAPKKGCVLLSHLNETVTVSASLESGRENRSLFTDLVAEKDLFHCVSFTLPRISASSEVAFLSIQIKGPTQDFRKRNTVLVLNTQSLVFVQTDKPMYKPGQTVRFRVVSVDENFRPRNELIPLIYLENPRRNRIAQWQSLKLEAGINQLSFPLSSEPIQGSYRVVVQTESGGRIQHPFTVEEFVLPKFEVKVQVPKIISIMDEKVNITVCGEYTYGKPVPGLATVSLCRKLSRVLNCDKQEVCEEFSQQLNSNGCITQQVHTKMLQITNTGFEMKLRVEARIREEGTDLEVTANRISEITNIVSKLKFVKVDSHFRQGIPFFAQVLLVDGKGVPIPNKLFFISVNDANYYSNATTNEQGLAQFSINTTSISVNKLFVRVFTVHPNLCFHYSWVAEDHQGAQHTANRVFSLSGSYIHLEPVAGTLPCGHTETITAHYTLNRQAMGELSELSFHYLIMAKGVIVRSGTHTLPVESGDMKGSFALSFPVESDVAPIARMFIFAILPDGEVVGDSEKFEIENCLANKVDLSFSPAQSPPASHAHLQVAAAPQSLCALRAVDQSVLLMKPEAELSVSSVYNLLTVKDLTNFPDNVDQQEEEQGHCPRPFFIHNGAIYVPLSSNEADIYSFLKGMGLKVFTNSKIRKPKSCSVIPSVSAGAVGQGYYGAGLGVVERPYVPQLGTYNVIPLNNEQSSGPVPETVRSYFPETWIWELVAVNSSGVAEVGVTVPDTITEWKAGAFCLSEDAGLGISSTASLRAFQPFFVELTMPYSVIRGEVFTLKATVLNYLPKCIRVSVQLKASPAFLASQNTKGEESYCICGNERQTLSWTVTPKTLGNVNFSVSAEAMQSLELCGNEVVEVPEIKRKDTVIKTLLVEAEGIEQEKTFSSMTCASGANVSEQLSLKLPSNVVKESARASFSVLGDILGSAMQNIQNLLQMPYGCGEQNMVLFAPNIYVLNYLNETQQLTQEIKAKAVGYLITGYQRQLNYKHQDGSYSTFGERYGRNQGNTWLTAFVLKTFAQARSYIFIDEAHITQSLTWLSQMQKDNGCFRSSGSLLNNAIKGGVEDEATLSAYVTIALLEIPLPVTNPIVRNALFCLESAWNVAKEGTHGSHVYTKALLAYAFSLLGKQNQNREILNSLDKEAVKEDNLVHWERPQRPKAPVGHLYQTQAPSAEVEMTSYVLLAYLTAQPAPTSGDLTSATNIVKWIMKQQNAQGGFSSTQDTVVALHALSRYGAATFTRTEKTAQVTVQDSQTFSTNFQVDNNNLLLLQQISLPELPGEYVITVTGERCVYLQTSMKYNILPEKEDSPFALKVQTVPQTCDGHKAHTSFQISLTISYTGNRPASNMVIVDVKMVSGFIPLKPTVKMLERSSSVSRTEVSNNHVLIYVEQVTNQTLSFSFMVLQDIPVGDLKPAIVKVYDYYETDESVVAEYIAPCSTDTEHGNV
UniProt Q9Y3E5: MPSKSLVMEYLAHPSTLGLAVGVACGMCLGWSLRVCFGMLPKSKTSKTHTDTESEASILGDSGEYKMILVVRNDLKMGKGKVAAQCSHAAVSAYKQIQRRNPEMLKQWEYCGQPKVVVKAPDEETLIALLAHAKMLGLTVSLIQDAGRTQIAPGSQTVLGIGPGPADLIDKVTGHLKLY

Legend:
Test in all cases: log2 fold change, soluble protein after heating vs DMSO (PISA); higher = thermal stabilisation; K562 cells, 10 uM, 30 min; active = over 0.2 and 3.5 SD of the protein, either way, in both replicates (recomputed)
bafetinib = compound: Cc1ccc(NC(=O)c2ccc(CN3CC[C@H](N(C)C)C3)c(C(F)(F)F)c2)cc1Nc1nccc(-c2cncnc2)n1 [bafetinib]
Outline: (§1)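 K562 cells (2×10^6 cells/mL) were treated with 10 μM compound for 30 min, and aliquots were heated for 3 min over 48°C-58°C. Pooled aliquots were extracted in PBS with 0.5% NP-40 at 4°C, and the supernatant after 21,000xg for 90 min was measured by TMTpro 16plex LC-MS/MS with channel sums equalised. Reported thermal stability, relative to control samples and from duplicates, is a log2 fold change.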

[1] = compound: Cc1cccc(CC(=O)N2CCc3c2ccc(-c2cn(C)c4ncnc(N)c24)c3F)n1
Outline: as §1

nilotinib = compound: Cc1cn(-c2cc(NC(=O)c3ccc(C)c(Nc4nccc(-c5cccnc5)n4)c3)cc(C(F)(F)F)c2)cn1 [nilotinib]
Outline: as §1

[2] = compound: Cc1nc(Nc2n[nH]c3c2CN(C(=O)N[C@H](CN(C)C)c2ccccc2)C3(C)C)c2sccc2n1
Outline: as §1

dasatinib = compound: Cc1nc(Nc2ncc(C(=O)Nc3c(C)cccc3Cl)s2)cc(N2CCN(CCO)CC2)n1 [dasatinib]
Outline: as §1

[3] = compound: Cc1ncc(-c2ccnc(Nc3ccc(S(C)(=O)=O)cc3)n2)n1C(C)C
Outline: as §1

[4] = compound: Cn1cc(-c2ccc3c(c2)CCN3C(=O)Cc2cccc(C(F)(F)F)c2)c2c(N)ncnc21
Outline: as §1

[5] = compound: Cn1cc(-c2ccc3nnc(C(F)(F)c4ccc5ncccc5c4)n3n2)cn1
Outline: as §1

tipifarnib = compound: Cn1cncc1[C@@](N)(c1ccc(Cl)cc1)c1ccc2c(c1)c(-c1cccc(Cl)c1)cc(=O)n2C [tipifarnib]
Outline: as §1

mubritinib = compound: FC(F)(F)c1ccc(/C=C/c2nc(COc3ccc(CCCCn4ccnn4)cc3)co2)cc1 [mubritinib]
Outline: as §1

Measured: log2 fold change

PSME2 (UniProt Q9UL46)
inactive: bafetinib -0.071 | [1] -0.003 | nilotinib -0.033 | [2] -0.038 | dasatinib -0.027 | [3] -0.032 | [4] -0.006 | [5] -0.012 | tipifarnib -0.021 | mubritinib 0.035

QPCTL (UniProt Q9NXS2)
inactive: bafetinib -0.017 | [1] -0.027 | nilotinib -0.045 | [2] 0.03 | dasatinib 0.025 | [3] -0.074 | [4] -0.073 | [5] -0.062 | tipifarnib 0.127 | mubritinib -0.068

PSME3 isoform 2 (UniProt P61289)
inactive: bafetinib -0.049 | [1] -0.029 | nilotinib 0.011 | [2] -0.001 | dasatinib 0.037 | [3] -0.016 | [4] 0.007 | [5] -0.004 | tipifarnib 0.026 | mubritinib 0.031

PTPN11 isoform 1 (UniProt Q06124)
inactive: bafetinib -0.021 | [1] 0.071 | nilotinib 0.019 | [2] -0.024 | dasatinib -0.064 | [3] -0.017 | [4] 0.037 | [5] -0.018 | tipifarnib 0.012 | mubritinib 0.094

PTGS1 isoform 6 (UniProt P23219)
inactive: bafetinib -0.007 | [1] -0.041 | nilotinib -0.025 | [2] 0.047 | dasatinib -0.02 | [3] -0.026 | [4] 0.029 | [5] 0.058 | tipifarnib 0.034 | mubritinib -0.021

PSMB1 (UniProt P20618)
inactive: bafetinib 0.023 | [1] 0.133 | nilotinib 0.054 | [2] 0.036 | dasatinib 0.023 | [3] 0.005 | [4] -0.03 | [5] -0.026 | tipifarnib 0.008 | mubritinib -0.03

PYCR2 (UniProt Q96C36)
inactive: bafetinib 0.005 | [1] 0.038 | nilotinib 0.007 | [2] 0.033 | dasatinib 0.043 | [3] -0.02 | [4] 0.03 | [5] 0.022 | tipifarnib -0.009 | mubritinib 0.045

PTBP1 (UniProt P26599)
inactive: bafetinib 0.047 | [1] 0.127 | nilotinib -0.079 | [2] -0.121 | dasatinib -0.078 | [3] -0.048 | [4] 0.009 | [5] 0.009 | tipifarnib -0.05 | mubritinib -0.018

PYCARD (UniProt Q9ULZ3)
inactive: bafetinib -0.01 | [1] 0.012 | nilotinib 0.009 | [2] -0.041 | dasatinib 0.009 | [3] -0.013 | [4] 0.043 | [5] 0.065 | tipifarnib -0.008 | mubritinib 0.132

PUS7L (UniProt Q9H0K6)
inactive: bafetinib -0.04 | [1] -0.004 | nilotinib -0.003 | [2] -0.057 | dasatinib 0.013 | [3] -0.001 | [4] -0.001 | [5] -0.018 | tipifarnib 0.032 | mubritinib 0.007

PSME4 (UniProt Q14997)
inactive: bafetinib 0.069 | [1] 0.141 | nilotinib -0.057 | [2] 0.016 | dasatinib -0.084 | [3] -0.098 | [4] 0.015 | [5] -0.006 | tipifarnib -0.036 | mubritinib 0.052

PSMA6 (UniProt P60900)
inactive: bafetinib 0.054 | [1] -0.013 | nilotinib 0.006 | [2] 0.09 | dasatinib 0.065 | [3] -0.009 | [4] -0.085 | [5] -0.03 | tipifarnib 0.021 | mubritinib -0.057

PSMD5 (UniProt Q16401)
inactive: bafetinib -0.09 | [1] 0.006 | nilotinib -0.015 | [2] -0.026 | dasatinib -0.026 | [3] 0.006 | [4] 0.018 | [5] 0.002 | tipifarnib -0.05 | mubritinib 0.023

PYM1 (UniProt Q9BRP8)
inactive: bafetinib 0.103 | [1] -0.05 | nilotinib 0.033 | [2] 0.101 | dasatinib 0.05 | [3] 0.004 | [4] -0.092 | [5] 0.014 | tipifarnib 0.058 | mubritinib -0.005

PSMB2 (UniProt P49721)
inactive: bafetinib 0.1 | [1] 0.01 | nilotinib 0.026 | [2] 0.058 | dasatinib 0.107 | [3] -0.034 | [4] 0.006 | [5] 0.037 | tipifarnib -0.001 | mubritinib -0.001

PSMD7 (UniProt P51665)
inactive: bafetinib 0.075 | [1] 0.009 | nilotinib 0.014 | [2] 0.065 | dasatinib 0.054 | [3] -0.033 | [4] -0.116 | [5] -0.01 | tipifarnib 0.079 | mubritinib 0.019

PSMB3 (UniProt P49720)
inactive: bafetinib 0.056 | [1] -0.008 | nilotinib -0.008 | [2] 0.053 | dasatinib 0.051 | [3] -0.023 | [4] -0.059 | [5] 0.015 | tipifarnib 0.039 | mubritinib 0.007

QDPR (UniProt P09417)
inactive: bafetinib -0.047 | [1] 0.011 | nilotinib -0.006 | [2] 0.018 | dasatinib 0.088 | [3] -0.014 | [4] -0.023 | [5] 0.018 | tipifarnib 0.022 | mubritinib 0.056

PSPC1 (UniProt Q8WXF1)
inactive: bafetinib 0.015 | [1] 0.088 | nilotinib -0.004 | [2] -0.179 | dasatinib -0.02 | [3] -0.112 | [4] -0.003 | [5] 0 | tipifarnib -0.004 | mubritinib -0.033

PUM1 isoform 3 (UniProt Q14671)
inactive: bafetinib -0.062 | [1] 0.006 | nilotinib -0.047 | [2] -0.066 | dasatinib -0.044 | [3] -0.014 | [4] 0.01 | [5] 0 | tipifarnib -0.015 | mubritinib 0.007

PSMC3 (UniProt P17980)
inactive: bafetinib 0.072 | [1] -0.033 | nilotinib -0.004 | [2] 0.059 | dasatinib 0.016 | [3] -0.017 | [4] -0.1 | [5] -0.005 | tipifarnib 0.124 | mubritinib -0.016

PSMA7 (UniProt O14818)
inactive: bafetinib 0.027 | [1] -0.042 | nilotinib 0.02 | [2] 0.03 | dasatinib 0.078 | [3] -0.016 | [4] -0.035 | [5] 0.007 | tipifarnib 0.072 | mubritinib 0.004

QARS (UniProt P47897)
inactive: bafetinib 0.209 | [1] -0.008 | nilotinib -0.108 | [2] -0.006 | dasatinib 0.016 | [3] 0.05 | [4] -0.244 | [5] -0.221 | tipifarnib 0.007 | mubritinib -0.155

PSMD11 (UniProt O00231)
inactive: bafetinib 0.15 | [1] 0.042 | nilotinib 0.054 | [2] 0.068 | dasatinib -0.004 | [3] -0.014 | [4] -0.074 | [5] -0.043 | tipifarnib -0.021 | mubritinib -0.054

PSMD12 (UniProt O00232)
inactive: bafetinib 0.119 | [1] 0.033 | nilotinib 0.026 | [2] 0.044 | dasatinib 0 | [3] -0.001 | [4] -0.088 | [5] -0.022 | tipifarnib 0.019 | mubritinib -0.034

QRSL1 (UniProt Q9H0R6)
inactive: bafetinib -0.036 | [1] 0.048 | nilotinib -0.041 | [2] -0.028 | dasatinib -0.171 | [3] 0.045 | [4] 0.037 | [5] 0.024 | tipifarnib 0.002 | mubritinib -0.102

PSMD1 (UniProt Q99460)
inactive: bafetinib 0.16 | [1] 0.037 | nilotinib 0.006 | [2] 0.041 | dasatinib 0.065 | [3] -0.017 | [4] -0.102 | [5] 0.019 | tipifarnib 0.068 | mubritinib -0.019

PSMG2 (UniProt Q969U7)
inactive: bafetinib -0.029 | [1] -0.004 | nilotinib 0.007 | [2] -0.006 | dasatinib 0.019 | [3] -0.019 | [4] 0.014 | [5] -0.005 | tipifarnib -0.012 | mubritinib 0.026

PZP (UniProt P20742)
inactive: bafetinib -0.021 | [1] 0.081 | nilotinib 0.059 | [2] 0.084 | dasatinib 0.052 | [3] 0.552 | [4] 0.238 | [5] -0.156 | tipifarnib -0.009 | mubritinib -0.026

2 entries picked at random from the list so far, as already listed:
PTPN11 isoform 1 (UniProt Q06124)
inactive: bafetinib -0.021 | [1] 0.071 | nilotinib 0.019 | [2] -0.024 | dasatinib -0.064 | [3] -0.017 | [4] 0.037 | [5] -0.018 | tipifarnib 0.012 | mubritinib 0.094

PSMB1 (UniProt P20618)
inactive: bafetinib 0.023 | [1] 0.133 | nilotinib 0.054 | [2] 0.036 | dasatinib 0.023 | [3] 0.005 | [4] -0.03 | [5] -0.026 | tipifarnib 0.008 | mubritinib -0.03

(further entries)

PTRH2 (UniProt Q9Y3E5)
inactive: bafetinib -0.022 | [1] 0.017 | nilotinib 0.039 | [2] -0.011 | dasatinib -0.004 | [3] 0.046 | [4] 0.044 | [5] -0.019 | tipifarnib 0.042 | mubritinib -0.009
